Measurements reported in PubChem BioAssay AID2685 (National Center for Advancing Translational Sciences (NCATS), 2010).
The other results are listed elsewhere or left out. Further columns of the screen follow, without active or inactive calls. Most of these compounds were active or inconclusive in the main read-out, so they are no random draw. The note in brackets gives the kind of curve behind each potency; many fits are weak.

Test: qHTS Assay for Lipid Storage Modulators in Drosophila S3 Cells;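 for cell number change: cells counted by Cell Tracker Red CMTPX staining in the red channel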
Conditions: BODIPY lipid droplet fluorescence, 18-24 h; for cell number change: measured here: cell count max response, cells fed with added oleic acid
Procedure, shortened: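 Drosophila S3 cells loaded with oleic acid (400 uM, as added) and compounds at several concentrations; lipid droplets imaged by 488-nm laser-scanning cytometry, 500–530 nm intensity and object ratio to cell channel. Percent activity normalized to 20 uM Triacsin C.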

[1] = measured here: lipid fluorescence (Fed channel) AC50, cells fed with added oleic acid
[2] = measured here: cell number channel AC50, cells fed with added oleic acid

CC(=O)N1CCN(c2nc(CC(C)C)c3c(c2C#N)CCC3)CC1
cell number change: 4.13% | AC50 [1]: 6.51 µM [rising, single point]

O=C(C1=C[C@@H]2[C@H]3C(=O)N(c4ccccc4Cl)C(=O)[C@H]3[C@@H](C(=O)c3ccc(Cl)cc3)N2C=C1)c1ccccc1
AC50 [1]: 0.461 µM [rising, partial curve, poor fit]

CCC(NC(=O)c1cc(COc2ccc(F)cc2Cl)on1)c1ccncc1 (stereo unspecified)
AC50 [1]: 6.51 µM [rising, single point]

COc1ccc(COC(=O)NC(C(=O)O)c2ccccc2)cc1 (stereo unspecified)
cell number change: -2.97% | AC50 [1]: 0.00651 µM [falling, full curve, poor fit]

Cc1cc(NC(=O)c2ccc(F)cc2)n(-c2ccccn2)n1
cell number change: 2.93% | AC50 [2]: 3.26 µM [falling, partial curve] | AC50 [1]: 2.31 µM [falling, partial curve]

N#Cc1c2n(c3c(N)ncnc13)CCCCC2
cell number change: 12%

COc1cc(C#N)ccc1OCC(=O)N1CCc2ccccc2C1
cell number change: -23.8% | AC50 [1]: 2.06 µM [falling, single point]

CN1C(=O)N(C)c2ccc(C=O)c3cccc1c23
cell number change: 9.72% | AC50 [1]: 6.51 µM [rising, partial curve, poor fit]

Cc1ccc(C(=O)NC(=S)NNC(=O)COc2ccccc2C)cc1
cell number change: -4.75%

Cc1cccc(NC2=C(NCCO)C(=O)c3ccccc3C2=O)c1
cell number change: -76.8% | AC50 [2]: 23.1 µM [falling, partial curve, poor fit] | AC50 [1]: 13 µM [falling, partial curve]

CCOc1ccc(S(=O)(=O)Nc2ccncc2)c(C)c1C
cell number change: -29.1% | AC50 [1]: 29.1 µM [falling, single point]

N#Cc1ccc2ccn(CC(=O)NC3CCCCC3)c2c1
cell number change: -10.4% | AC50 [1]: 0.103 µM [falling, full curve, poor fit]

COCCN(C(=O)C1CCN(C(=O)c2ccccc2C)CC1)c1c(N)n(CC(C)C)c(=O)[nH]c1=O
cell number change: -14.5%

COc1ccc(CN2CCCCC2C)cc1OC (stereo unspecified)
cell number change: -128% | AC50 [2]: 23.1 µM [falling, partial curve] | AC50 [1]: 23.1 µM [falling, partial curve]

Cc1occc1-c1nnc(SCC(=O)Nc2nc3ccccc3s2)o1
cell number change: 41.1% | AC50 [2]: 29.1 µM [rising, single point] | AC50 [1]: 0.651 µM [rising, single point]

c1ccc(Cc2c[nH]c3ccccc23)cc1
cell number change: -23%

CN1CCOc2cc(S(=O)(=O)Nc3ccc(F)cc3)ccc21
cell number change: -35% | AC50 [2]: 0.206 µM [falling, full curve, poor fit] | AC50 [1]: 0.092 µM [falling, full curve]

CCOc1ccc(C(=O)NC(=S)Nc2cc(C)ccn2)cc1[N+](=O)[O-]
cell number change: 5.81%

C=CCN1C(=O)c2ccc(C(=O)N(CC)CC(=O)Nc3cc(Cl)ccc3C)cc2C1=O
cell number change: -56.2% | AC50 [2]: 7.31 µM [falling, single point] | AC50 [1]: 0.58 µM [falling, single point]

COc1ccc(OC)c(-c2nnc(SCC(=O)NC3CCCCC3)o2)c1
cell number change: 110% | AC50 [2]: 5.17 µM [rising, full curve] | AC50 [1]: 6.51 µM [rising, partial curve]

COc1cccc(NC(=O)CN(C)C(=O)Cc2ccc(Cl)cc2Cl)c1
cell number change: 29.5%

CCN(C(=N)N=C(N)N)c1ccccc1
cell number change: -37.4% | AC50 [1]: 29.1 µM [falling, single point]

c1csc(CCNc2ncnc3sc4c(c23)CCC4)c1
cell number change: -9.94%

NC(=O)c1sc2nc3c(c(-c4ccc(Cl)cc4)c2c1N)CCCC3
cell number change: 17.6% | AC50 [2]: 0.517 µM [rising, full curve, poor fit] | AC50 [1]: 9.2 µM [rising, partial curve]

COc1cccc(OC)c1NC(=O)C1CCCN1C(=O)Nc1cccc(Cl)c1 (stereo unspecified)
cell number change: -10.5% | AC50 [1]: 29.1 µM [falling, single point]

O=C(Oc1cccnc1)c1ccc(Cl)cc1
cell number change: -1.47%

Cc1cccc(C(=O)N[C@H](C(=O)OCc2cc(=O)n3c(n2)sc2ccccc23)C(C)C)c1
cell number change: 0.725% | AC50 [1]: 0.103 µM [rising, full curve, poor fit]

CCCc1cc(=O)n2[nH]c(-c3ccco3)nc2n1
cell number change: -30.1% | AC50 [2]: 2.59 µM [falling, full curve] | AC50 [1]: 2.06 µM [falling, full curve, poor fit]

CC(C)(C)c1nc2ccc([N+](=O)[O-])cc2[nH]1
cell number change: -0.331%

O=c1oc2ccccc2cc1-c1nc2c(s1)CCc1ccccc1-2
cell number change: -1.59% | AC50 [1]: 0.517 µM [falling, single point]

O=C(Nc1csnn1)c1csnn1
cell number change: -37% | AC50 [2]: 29.1 µM [falling, single point] | AC50 [1]: 0.651 µM [rising, single point]

O=C(Cc1c(F)cccc1Cl)c1ccc(O)cc1O
cell number change: -53.2% | AC50 [2]: 9.2 µM [falling, partial curve] | AC50 [1]: 7.31 µM [falling, partial curve]

CCOc1ccc(N(CC(=O)N2CCCCCC2)S(=O)(=O)c2ccc(C)cc2)cc1
cell number change: 1.45% | AC50 [1]: 29.1 µM [falling, single point]

C/C(N)=C(/C#N)C(=O)COC(=O)CNS(=O)(=O)c1c(F)cccc1F
cell number change: -31.5%

O=S(=O)(Cc1ccc(Cl)cc1)c1ncc(CO)n1Cc1ccccc1
cell number change: -5.81% | AC50 [1]: 6.51 µM [falling, single point]

CC1CCCC(C)N1C(=O)COC(=O)c1cc(Br)ccc1Cl (stereo unspecified)
cell number change: -31.7% | AC50 [2]: 29.1 µM [falling, single point] | AC50 [1]: 20.6 µM [falling, single point]

Cc1ccc(-c2ccc(C(=O)NCc3ccccc3)o2)c2ccccc12
cell number change: -2.61% | AC50 [1]: 2.59 µM [rising, full curve]

COC(=O)c1ccc(C2=NOC(C)(c3sc(-c4ccc(Cl)cc4)nc3C)C2)cc1 (stereo unspecified)
cell number change: 29% | AC50 [1]: 9.2 µM [rising, partial curve]

O=c1c2cc(NC(=S)N3CCCCCC3)ccc2nc2n1CCCCC2
cell number change: -23.2% | AC50 [1]: 7.31 µM [falling, partial curve]

CCCCn1c(SCC(=O)Nc2cc(C)on2)nc2ccccc2c1=O
AC50 [2]: 0.517 µM [rising, partial curve] | AC50 [1]: 0.411 µM [rising, full curve]

O=S(Cc1ccc(Br)cc1)Cc1nnc(SCc2c(F)cccc2Cl)n1-c1ccccc1 (stereo unspecified)
cell number change: 0.777% | AC50 [1]: 2.06 µM [rising, single point]

CN(c1ccc(O)cc1)c1nc(-c2ccccc2)cs1
cell number change: -62.2% | AC50 [2]: 29.1 µM [falling, single point] | AC50 [1]: 2.91 µM [falling, partial curve]

O=C(Nc1nc2ccccc2c(=O)s1)c1ccc(F)cc1Cl
cell number change: 2.84%

COc1ccc(-n2c(N)c(C(=O)NCc3cccnc3)sc2=S)cc1
AC50 [2]: 0.731 µM [rising, full curve] | AC50 [1]: 3.26 µM [rising, partial curve]

COc1ccc(/C=C(\NC(=O)/C=C/c2ccco2)C(=O)NCCc2nc3ccccc3[nH]2)cc1
cell number change: -21.1% | AC50 [2]: 3.66 µM [falling, single point] | AC50 [1]: 29.1 µM [rising, single point]

CC1CCN(S(=O)(=O)c2cnc[nH]2)CC1
cell number change: 14.9% | AC50 [1]: 13 µM [rising, partial curve]

Cc1cccc(OCCCSc2nc3ccc(C)cc3[nH]2)c1
cell number change: 53.6% | AC50 [2]: 16.4 µM [rising, single point]

CCN1CCN(CCNC(=O)c2ccc(/C=C3\Sc4ccccc4N(Cc4ccccc4F)C3=O)cc2)CC1
cell number change: -37.1% | AC50 [2]: 0.517 µM [falling, full curve, poor fit] | AC50 [1]: 29.1 µM [falling, single point]

CC1(C)CC(NC(=O)c2ccc(Cl)cc2)CC(C)(C)N1
cell number change: 4.5% | AC50 [1]: 6.51 µM [rising, single point]

O=C(CSc1ccccc1)Nc1nnc(-c2ccco2)o1
cell number change: -52.4% | AC50 [2]: 13 µM [falling, partial curve] | AC50 [1]: 20.6 µM [falling, partial curve]

CCN(c1ccc(NC(=O)c2cccc(S(=O)(=O)N3CCN(C)CC3)c2)cc1)C(C)C
cell number change: 55.7% | AC50 [2]: 29.1 µM [rising, partial curve, poor fit]

CCCc1c(NC(=O)Nc2ccc(F)cc2)cnn1-c1ccc(Cl)cc1
cell number change: 8.37% | AC50 [1]: 0.259 µM [rising, full curve, poor fit]

Clc1ccc(Oc2cccc(/C=N/n3cnnc3)c2)cc1
cell number change: -37.4% | AC50 [2]: 29.1 µM [falling, single point] | AC50 [1]: 2.31 µM [rising, partial curve]

COc1ccc(/C=N/NC(=O)CCC(=O)Nc2ccc(Br)cc2)c(OC)c1
cell number change: -65.2% | AC50 [2]: 29.1 µM [falling, single point] | AC50 [1]: 29.1 µM [falling, single point]

Cc1ccc(S(=O)(=O)N2CCCC2)s1
cell number change: 22.7% | AC50 [1]: 35.5 µM [rising, single point]

Cc1onc(-c2c(Cl)cccc2Cl)c1C(=O)NCc1cccs1
AC50 [2]: 6.51 µM [falling, single point] | AC50 [1]: 6.51 µM [falling, single point]

COc1ccc(C(=O)c2coc(-c3ccccc3C(=O)O)c2C(=O)O)cc1
cell number change: -10.1% | AC50 [1]: 16.4 µM [falling, partial curve]

CCOC(=O)c1sc(NC(=O)c2cc(-c3ccccc3)nc3ccccc23)c(C#N)c1C
cell number change: -4.02% | AC50 [1]: 0.206 µM [falling, full curve, poor fit]
